Experimental data as given in paper PMC9701216.
No constants are given. Whether binding was seen depends on the method and setting. For some of these results: Binding seen in cells or lysates may run through a third protein. Some results given as binding are weak or reduced against the parent protein; the word gives no strength. Each block holds one molecule with its values, some of them ahead of it.

By UniProt entry, the sequences of proteins in these tests, tags left out.
UniProt Q3TKT4: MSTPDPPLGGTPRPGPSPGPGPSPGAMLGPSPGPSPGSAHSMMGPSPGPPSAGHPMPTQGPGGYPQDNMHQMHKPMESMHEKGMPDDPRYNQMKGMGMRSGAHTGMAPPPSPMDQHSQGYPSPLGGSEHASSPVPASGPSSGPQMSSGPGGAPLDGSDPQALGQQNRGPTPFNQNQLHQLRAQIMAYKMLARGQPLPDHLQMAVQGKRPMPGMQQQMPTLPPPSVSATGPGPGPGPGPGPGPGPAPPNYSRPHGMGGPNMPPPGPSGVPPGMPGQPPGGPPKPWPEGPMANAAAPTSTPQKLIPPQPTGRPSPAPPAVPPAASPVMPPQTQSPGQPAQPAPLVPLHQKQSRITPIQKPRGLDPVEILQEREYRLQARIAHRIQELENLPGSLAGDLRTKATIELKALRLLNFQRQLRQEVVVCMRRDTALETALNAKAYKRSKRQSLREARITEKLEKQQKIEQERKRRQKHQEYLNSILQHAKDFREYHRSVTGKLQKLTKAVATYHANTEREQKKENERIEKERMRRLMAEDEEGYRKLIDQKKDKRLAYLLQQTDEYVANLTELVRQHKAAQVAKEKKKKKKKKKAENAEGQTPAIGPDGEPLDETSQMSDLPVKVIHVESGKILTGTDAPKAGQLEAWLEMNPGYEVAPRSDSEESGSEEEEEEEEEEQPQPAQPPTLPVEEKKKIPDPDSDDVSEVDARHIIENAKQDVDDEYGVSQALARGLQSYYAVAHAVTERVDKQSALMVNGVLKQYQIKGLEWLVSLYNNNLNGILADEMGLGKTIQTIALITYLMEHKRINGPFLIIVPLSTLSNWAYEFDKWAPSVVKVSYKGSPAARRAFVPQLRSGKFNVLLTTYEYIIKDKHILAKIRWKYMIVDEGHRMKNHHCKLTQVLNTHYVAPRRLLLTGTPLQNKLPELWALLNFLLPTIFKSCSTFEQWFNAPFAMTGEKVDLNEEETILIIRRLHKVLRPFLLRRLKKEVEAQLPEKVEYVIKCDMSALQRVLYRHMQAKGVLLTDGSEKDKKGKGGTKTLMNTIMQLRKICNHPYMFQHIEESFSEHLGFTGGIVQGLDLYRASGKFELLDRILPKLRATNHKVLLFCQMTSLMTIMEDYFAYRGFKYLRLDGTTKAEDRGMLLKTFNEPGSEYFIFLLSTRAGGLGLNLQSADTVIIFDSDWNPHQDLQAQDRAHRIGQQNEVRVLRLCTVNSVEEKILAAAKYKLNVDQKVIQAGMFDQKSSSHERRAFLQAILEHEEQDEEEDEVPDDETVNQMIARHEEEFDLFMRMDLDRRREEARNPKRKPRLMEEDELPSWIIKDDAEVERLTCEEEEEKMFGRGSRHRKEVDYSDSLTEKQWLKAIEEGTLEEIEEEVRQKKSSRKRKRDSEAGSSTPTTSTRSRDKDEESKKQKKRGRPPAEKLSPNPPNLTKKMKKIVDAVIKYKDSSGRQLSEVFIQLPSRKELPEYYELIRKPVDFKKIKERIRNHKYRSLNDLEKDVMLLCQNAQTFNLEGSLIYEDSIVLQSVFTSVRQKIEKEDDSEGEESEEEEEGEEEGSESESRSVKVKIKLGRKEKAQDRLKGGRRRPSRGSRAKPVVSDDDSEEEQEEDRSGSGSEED
UniProt O14497: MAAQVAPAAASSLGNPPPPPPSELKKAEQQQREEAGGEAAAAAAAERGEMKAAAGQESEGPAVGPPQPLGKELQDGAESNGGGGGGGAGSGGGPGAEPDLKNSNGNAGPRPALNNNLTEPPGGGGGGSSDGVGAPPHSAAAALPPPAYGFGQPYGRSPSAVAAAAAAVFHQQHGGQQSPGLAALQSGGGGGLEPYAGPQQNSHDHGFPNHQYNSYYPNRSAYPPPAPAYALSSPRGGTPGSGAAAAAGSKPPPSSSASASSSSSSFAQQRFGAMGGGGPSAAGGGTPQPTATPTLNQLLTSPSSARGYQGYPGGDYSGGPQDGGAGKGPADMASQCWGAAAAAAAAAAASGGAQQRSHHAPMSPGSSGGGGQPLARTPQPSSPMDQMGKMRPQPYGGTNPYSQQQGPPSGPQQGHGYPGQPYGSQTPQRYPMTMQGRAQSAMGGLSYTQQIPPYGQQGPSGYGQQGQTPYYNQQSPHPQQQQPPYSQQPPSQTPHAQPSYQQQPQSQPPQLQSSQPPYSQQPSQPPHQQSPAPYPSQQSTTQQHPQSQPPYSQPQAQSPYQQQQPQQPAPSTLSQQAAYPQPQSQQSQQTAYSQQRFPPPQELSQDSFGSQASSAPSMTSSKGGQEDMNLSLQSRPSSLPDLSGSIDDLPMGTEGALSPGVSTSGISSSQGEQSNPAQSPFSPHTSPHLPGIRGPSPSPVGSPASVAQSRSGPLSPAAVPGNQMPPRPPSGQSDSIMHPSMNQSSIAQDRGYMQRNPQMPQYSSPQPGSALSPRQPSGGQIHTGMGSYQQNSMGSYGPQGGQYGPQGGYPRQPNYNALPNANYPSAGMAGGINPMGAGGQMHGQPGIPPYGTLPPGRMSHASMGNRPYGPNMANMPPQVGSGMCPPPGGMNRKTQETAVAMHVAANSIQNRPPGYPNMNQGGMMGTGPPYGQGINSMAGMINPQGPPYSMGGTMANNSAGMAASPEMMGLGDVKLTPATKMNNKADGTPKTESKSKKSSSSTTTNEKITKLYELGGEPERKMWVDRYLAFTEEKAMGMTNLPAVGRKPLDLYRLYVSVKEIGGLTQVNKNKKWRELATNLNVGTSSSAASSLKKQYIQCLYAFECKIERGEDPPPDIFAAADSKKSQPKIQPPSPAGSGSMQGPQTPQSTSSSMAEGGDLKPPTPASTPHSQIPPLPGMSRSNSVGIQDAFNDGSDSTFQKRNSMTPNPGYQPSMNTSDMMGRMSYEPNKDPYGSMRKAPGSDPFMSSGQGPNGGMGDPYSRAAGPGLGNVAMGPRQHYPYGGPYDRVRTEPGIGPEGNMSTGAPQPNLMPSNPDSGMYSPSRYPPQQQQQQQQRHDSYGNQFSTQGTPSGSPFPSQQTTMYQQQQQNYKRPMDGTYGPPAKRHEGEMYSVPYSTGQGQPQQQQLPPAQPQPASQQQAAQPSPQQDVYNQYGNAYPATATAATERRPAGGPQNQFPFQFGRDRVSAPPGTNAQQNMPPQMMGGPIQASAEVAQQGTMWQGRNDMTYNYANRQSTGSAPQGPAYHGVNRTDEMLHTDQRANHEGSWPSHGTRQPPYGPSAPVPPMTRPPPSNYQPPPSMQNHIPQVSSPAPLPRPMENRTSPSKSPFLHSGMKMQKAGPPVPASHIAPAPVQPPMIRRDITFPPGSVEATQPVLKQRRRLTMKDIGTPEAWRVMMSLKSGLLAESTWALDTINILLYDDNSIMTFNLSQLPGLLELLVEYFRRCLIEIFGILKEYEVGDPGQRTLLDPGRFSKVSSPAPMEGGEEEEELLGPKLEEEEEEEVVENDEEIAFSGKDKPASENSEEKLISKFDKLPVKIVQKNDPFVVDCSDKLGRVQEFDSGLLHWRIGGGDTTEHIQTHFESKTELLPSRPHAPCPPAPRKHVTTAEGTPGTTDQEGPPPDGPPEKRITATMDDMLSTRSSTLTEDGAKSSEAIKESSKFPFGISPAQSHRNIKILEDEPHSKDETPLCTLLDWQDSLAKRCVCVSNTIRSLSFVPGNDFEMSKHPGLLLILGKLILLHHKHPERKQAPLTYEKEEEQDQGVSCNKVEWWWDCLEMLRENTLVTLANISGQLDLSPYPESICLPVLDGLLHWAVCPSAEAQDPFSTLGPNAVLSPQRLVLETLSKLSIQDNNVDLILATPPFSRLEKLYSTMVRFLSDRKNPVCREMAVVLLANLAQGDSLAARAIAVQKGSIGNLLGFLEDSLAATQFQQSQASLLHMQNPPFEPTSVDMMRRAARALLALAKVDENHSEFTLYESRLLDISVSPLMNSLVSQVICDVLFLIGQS
UniProt Q9QX66: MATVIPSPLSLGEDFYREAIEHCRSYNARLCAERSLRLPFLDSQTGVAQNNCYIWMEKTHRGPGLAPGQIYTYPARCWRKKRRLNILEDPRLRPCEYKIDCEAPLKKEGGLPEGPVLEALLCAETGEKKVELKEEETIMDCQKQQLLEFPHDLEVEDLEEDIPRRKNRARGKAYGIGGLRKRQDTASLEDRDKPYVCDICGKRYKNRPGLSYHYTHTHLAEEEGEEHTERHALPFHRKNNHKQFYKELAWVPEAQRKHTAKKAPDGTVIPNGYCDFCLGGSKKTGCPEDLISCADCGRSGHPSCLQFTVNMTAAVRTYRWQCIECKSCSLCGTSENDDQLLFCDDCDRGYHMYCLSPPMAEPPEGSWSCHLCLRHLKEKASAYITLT
UniProt Q99MR0: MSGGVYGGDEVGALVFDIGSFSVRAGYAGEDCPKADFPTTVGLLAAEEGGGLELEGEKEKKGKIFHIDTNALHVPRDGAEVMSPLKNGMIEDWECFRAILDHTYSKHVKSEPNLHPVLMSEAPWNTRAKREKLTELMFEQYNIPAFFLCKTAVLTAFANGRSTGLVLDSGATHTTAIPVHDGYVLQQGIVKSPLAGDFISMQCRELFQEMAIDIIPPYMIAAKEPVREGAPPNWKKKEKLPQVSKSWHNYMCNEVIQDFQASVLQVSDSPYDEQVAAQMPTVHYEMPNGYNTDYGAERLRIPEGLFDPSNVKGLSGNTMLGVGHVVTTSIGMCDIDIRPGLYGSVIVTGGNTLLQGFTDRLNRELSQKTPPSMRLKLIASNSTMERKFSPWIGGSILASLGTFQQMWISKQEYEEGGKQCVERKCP
UniProt P97496: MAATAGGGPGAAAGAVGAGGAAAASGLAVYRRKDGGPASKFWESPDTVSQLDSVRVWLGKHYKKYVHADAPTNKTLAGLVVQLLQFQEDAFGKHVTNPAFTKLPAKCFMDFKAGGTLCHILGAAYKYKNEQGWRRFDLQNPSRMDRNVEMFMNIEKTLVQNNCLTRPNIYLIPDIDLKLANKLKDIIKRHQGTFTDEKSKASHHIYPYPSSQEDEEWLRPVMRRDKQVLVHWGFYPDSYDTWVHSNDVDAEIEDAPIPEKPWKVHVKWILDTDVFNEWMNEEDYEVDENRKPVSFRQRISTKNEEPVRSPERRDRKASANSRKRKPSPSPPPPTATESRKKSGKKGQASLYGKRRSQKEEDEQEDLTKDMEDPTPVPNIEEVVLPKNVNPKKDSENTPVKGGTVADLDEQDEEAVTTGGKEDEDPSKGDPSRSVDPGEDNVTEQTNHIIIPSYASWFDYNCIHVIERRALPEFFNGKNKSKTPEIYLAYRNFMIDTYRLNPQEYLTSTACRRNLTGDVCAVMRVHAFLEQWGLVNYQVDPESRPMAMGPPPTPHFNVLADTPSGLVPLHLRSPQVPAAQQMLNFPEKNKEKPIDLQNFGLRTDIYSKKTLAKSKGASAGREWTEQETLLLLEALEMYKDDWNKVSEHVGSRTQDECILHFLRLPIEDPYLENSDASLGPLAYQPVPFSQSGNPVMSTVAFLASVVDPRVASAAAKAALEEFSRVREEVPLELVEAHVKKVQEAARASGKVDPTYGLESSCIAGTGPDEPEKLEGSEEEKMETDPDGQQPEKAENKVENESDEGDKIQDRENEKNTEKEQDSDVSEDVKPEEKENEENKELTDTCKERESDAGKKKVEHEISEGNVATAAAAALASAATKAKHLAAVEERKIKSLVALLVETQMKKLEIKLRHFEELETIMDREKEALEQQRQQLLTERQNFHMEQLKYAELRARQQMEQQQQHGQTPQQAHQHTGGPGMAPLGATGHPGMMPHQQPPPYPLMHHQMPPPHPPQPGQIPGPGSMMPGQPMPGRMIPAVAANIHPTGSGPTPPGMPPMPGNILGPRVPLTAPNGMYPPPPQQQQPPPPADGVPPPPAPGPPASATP

Key:
[1] = target: BRG1 (mouse (endogenous in prostate tumors)) (UniProt Q3TKT4); test: co-IP; anti-BRG1 antibody on lysates of Pten^PC-/- and Pten^PC-/-; Arid1a^PC-/- mouse prostate tumors, immunoblot
[2] = target: ARID1A (endogenous, C4-2 cells) (human (endogenous in C4-2)) (UniProt O14497); test: SEC; gel filtration of C4-2 nuclear extracts on Superose 6 Increase 10/300 GL, fractions immunoblotted; cells treated with 20 ng/ml TNFα for 30 min
[3] = target: ARID1A (endogenous, C4-2 cells) (human (endogenous in C4-2)) (UniProt O14497); test: co-IP; anti-ARID1A immunoprecipitates of C4-2 cells, with or without TNF-α, immunoblot; HEPES lysis buffer pH 7.4, 200 mM NaCl, 0.5% NP-40, 4 °C overnight

binding [1]: binds
Molecule: ARID1B (from UniProt E9Q4N7 1-2306)

binding [1]: binds
Molecule: BAF45B (from UniProt Q9QX66 1-387)

binding [1]: binds
Molecule: BAF53B (from UniProt Q99MR0 1-426)

binding [1]: binds
Molecule: BAF155 (from UniProt P97496 1-1104)

binding [2]: binds | binding [3]: binds
B1: IKKβ (endogenous, C4-2 cells) (enzyme, UniProt O14920 1-756)
chain: MSWSPSLTTQTCGAWEMKERLGTGGFGNVIRWHNQETGEQIAIKQCRQELSPRNRERWCLEIQIMRRLTHPNVVAARDVPEGMQNLAPNDLPLLAMEYCQGGDLRKYLNQFENCCGLREGAILTLLSDIASALRYLHENRIIHRDLKPENIVLQQGEQRLIHKIIDLGYAKELDQGSLCTSFVGTLQYLAPELLEQQKYTVTVDYWSFGTLAFECITGFRPFLPNWQPVQWHSKVRQKSEVDIVVSEDLNGTVKFSSSLPYPNNLNSVLAERLEKWLQLMLMWHPRQRGTDPTYGPNGCFKALDDILNLKLVHILNMVTGTIHTYPVTEDESLQSLKARIQQDTGIPEEDQELLQEAGLALIPDKPATQCISDGKLNEGHTLDMDLVFLFDNSKITYETQISPRPQPESVSCILQEPKRNLAFFQLRKVWGQVWHSIQTLKEDCNRLQQGQRAAMMNLLRNNSCLSKMKNSMASMSQQLKAKLDFFKTSIQIDLEKYSEQTEFGITSDKLLLAWREMEQAVELCGRENEVKLLVERMMALQTDIVDLQRSPMGRKQGGTLDDLEEQARELYRRLREKPRDQRTEGDSQEMVRLLLQAIQSFEKKVRVIYTQLSKTVVCKQKALELLPKVEEVVSLMNEDEKTVVRLQEKRQKELWNLLKIACSKVRGPVSGSPDSMNASRLSQPGQLMSQPSTASNSLPEPAKKSEELVAEAHNLCTLLENAIQDTVREQDQSFTALDWSWLQTEEEEHSCLEQAS

binding [2]: binds
B2: p-IKKβ (endogenous, C4-2 cells) (enzyme, UniProt O14920 1-756)
chain: B1 chain
modifications: phosphorylated (p-IKKβ); sites not stated for this blot
